# Experimental data as given in PubChem BioAssay AID901 (National Center for Advancing Translational Sciences (NCATS), 2007).
# This is one part of the list. These are further read-outs of the screen, such as a control signal, another cell line or another target. No call is given for them. Most of these compounds were active or inconclusive in the main read-out, so they are no random draw. Potencies come from curve fits of mixed quality, noted in brackets.
# Assay: qHTS Assay for Identifying the Cell-Membrane Permeable IMPase Inhibitors
# Details: CHO-M1 cells, IP1 accumulation, HTRF TR-FRET ratio; measured here: donor channel 620 nm AC50
# From the text: NCGC IMPase Assay Overview
# Lithium has been widely used for the treatment of bipolar disorder. But lithium has a narrow therapeutic index and it can cause side effects such as thirst, weight gain, tremor, polyuria and memory problems. Although the mechanism for lithium action in treatment of bipolar disorder is still not fully understood, inhibition of inositol monophosphatase (IMPase) and the subsequent depletion of the inositol pool in living cells have been implicated as the primary therapeutic benefit of lithium therapy. Therefore, a selective IMPase inhibitor with reduced side effects might be a good drug candidate to replace lithium for the treatment of bipolar disorder. Several IMPase inhibitors have been discovered previously. However, they are not suitable for therapeutic use because of their poor cell membrane penetrability or oral bioavailability; the development of new cell-permeable IMPase inhibitors is needed.
# IMPase catalyzes the hydrolysis of inositol-1-phosphate (IP1) to release free inositol. Binding of an agonist to a Gq coupled GPCR results in the activation of PLC, which hydrolyzes the PIP2 to form inositol-1,4,5-trisphosphate (IP3) and diacyl glycerol (DAG). While DAG activates protein kinase C (PKC), IP3 triggers the elevation of intracellular free Ca2+. The IP3 is very rapidly inactivated by hydrolysis to IP2, IP1 and then inositol by a series of enzymes including IMPase. Free inositols are used for synthesis of PI and thus start another inositol cycle.
# To identify new cell-permeable IMPase inhibitors, we developed a cell-based IMPase assay in which the cytosolic IP1 is measured by a time-resolved fluorescence resonance energy transfer (TR-FRET) assay. In this assay, an IP1 specific antibody is used to detect the labeled IP1 tracer. When the cell lysate contains the elevated IP1 due to the inhibition of IMPase, the TR-FRET between the labeled antibody and IP1 tracer is disrupted resulting in a reduction in the total signal. Since the TR-FRET is used, this cell-based assay is a homogenous assay without cell wash and medium change that is suitable for assay miniaturization and HTS.
# NCGC IMPase Assay Protocol Summary
# A Chinese hamster ovary (CHO) cell line stably expressing the M1 receptor (CHO-M1) was obtained from ATCC and maintained in F-12 Kaighn's media (Invitrogen, Carlsbad, CA, 21127) supplemented with 10 % FBS, 100 units/ml penicillin, 100 ug/ml streptomycin and 250 ug/ml geneticin at 37C, 5% CO2 in a humidified atmosphere. Before the assay, aliquots of cells were frozen and stored at -135C. The assay was performed in 1536-well format. Data are reported for both the ratio of the two emission wavelengths, and also for the component 'donor' channel, Em2=620. […] AC50 values were determined from concentration-response data modeled with the standard Hill equation.
# IMPase 1536-well assay protocol:
# (1) Plate 4 ul/well (2000 cells) of cell suspension from frozen CHO-M1 Cells in white, tissue culture treated 1536-well plates that are cultured at 37C, 5 % CO2 for 16 to 30 hours.
# (2) Add 23 nl/well of compound in DMSO solution. The final titration for each compound was between 0.6 nM and 46 uM.
# (3) Add 1 ul of carbachol (50 uM in stimulation buffer containing10mM HEPES, 1mM CaCl2, 0.5 mM MgCl2, 4.2 mM KCl, 146 mM NaCl, 5.5 mM glucose, 50mM LiCl, pH 7.4.
# (4) Incubation at 37C, 5 % CO2 for 30 min.
# (5) Add 1 ul/well of d2-conjugated IP1 (d2-IP1) and 1 ul/well of Eu+ cryptate conjugated anti-IP1 antibody (Eu+-Ab) prepared in the cell lysis buffer, both from the IP-One kit (Cisbio, MA).
# (6) Incubate at room temperature for 10 minutes.
# (7) Detect the assay plate (Ex = 320, Em1 =665 and Em2 620) in a ViewLux plate reader.
# inositol monophosphatase, IMPase, IMPase inhibitor, lithium, bipolar disorder, IP-One, HTRF, qHTS, NIH roadmap, NCGC
# Note: In the gene ID and protein GI references for this assay, rat IMPase is referenced instead of hampster as hamster accession numbers were not available.
row,SMILES,AC50
1,N#CC(C(=O)C12CC3CC(CC(C3)C1)C2)c1nc2ccccc2[nH]1 (stereo not given),"631 nM [rising, partial curve, poor fit]"
2,COc1ccc2c(c1)/C(=C/c1cnc[nH]1)C(=O)N2,"12600 nM [falling, single point]"
3,CCCN(CCC)CCc1ccc(O)c(O)c1,"31.6 nM [falling, full curve, poor fit]"
4,Cc1ccc(OCC(=O)N2CCN(CC3CC4C=CC3C4)CC2)cc1 (stereo not given),"20000 nM [rising, single point]"
5,O=C(C1CCC(=O)N1C1CCCCC1)N1CCC2(CC1)OCCO2 (stereo not given),"316 nM [rising, partial curve, poor fit]"
6,CCN(CC)CCCN=Cc1c(O)n(Cc2ccc(F)cc2)c(=O)[nH]c1=O,"15.8 nM [rising, full curve, poor fit]"
7,O=c1[nH]c(=O)n([C@H]2C[C@H](O)[C@H](CO)O2)cc1/C=C\Br,"5010 nM [rising, single point]"
8,O=C(Nc1ccc2c(c1)OCO2)c1cn(Cc2ccc(F)cc2)nn1,"12600 nM [rising, single point]"
9,Fc1ccc(C2=CCN(C(c3cccs3)c3nnnn3CCc3ccccc3)CC2)cc1 (stereo not given),"31600 nM [rising, single point]"
10,O=c1[nH]c(=O)n(Cc2ccco2)c(O)c1C=NCc1cccs1,"3160 nM [rising, single point]"
11,Cc1ccccc1NC(=O)c1c(NC(=O)c2ccccc2F)sc2c1CCC(C)C2 (stereo not given),"1780 nM [falling, partial curve, poor fit]"
12,O=c1c2ccccc2nc(CSc2ncnc3nc[nH]c23)n1-c1ccccc1,"25100 nM [rising, single point]"
13,CCCn1nnc(NC(=O)COc2ccc(CC)cc2)n1,"20 nM [falling, full curve]"
14,COc1ccc(OCC(=O)N2CCN(C(C)C)CC2)cc1,"5620 nM [rising, single point]"
15,CCOc1ccc(Cn2c(=O)oc3ccc(C)cc32)cc1OC,"25.1 nM [rising, full curve, poor fit]"
16,CC(C)C(=O)c1cn(Cc2ccc(C#N)cc2)c2ccccc12,"12600 nM [falling, single point]"
17,CCOc1ccc(C2SCC(=O)Nc3c2c(=O)[nH]n3C2CCCCCC2)cc1 (stereo not given),"12.6 nM [falling, full curve]"
18,COc1cc(/C=C2\C(=O)NC(=O)N(c3ccccc3)C2=O)cc(OC)c1O,"3160 nM [falling, partial curve, poor fit]"
19,CC(=O)N1CCN(c2ccc(N=Cc3c(O)n(Cc4ccccc4)c(=O)[nH]c3=O)cc2)CC1,"251 nM [falling, full curve]"
20,COc1ccccc1CN1CCN(C(=O)Cc2ccccc2)CC1,"31.6 nM [rising, full curve, poor fit]"
21,O=c1c2ccccc2nc(CSc2ncnc3nc[nH]c23)n1-c1ccccc1Cl,"31600 nM [falling, single point]"
22,Cc1ccc(C)c(C2(O)CC(C)N(C)CC2C)c1 (stereo not given),"794 nM [rising, full curve]"

row,SMILES,AC50
1,Oc1ccc(CC2CC3CCN2CC3)cc1O (stereo not given),"5.01 nM [falling, full curve, poor fit]"
2,CC(C)(C)c1ccc(O)c(CN2CCN(c3ccccc3)CC2)c1,"31600 nM [rising, single point]"
3,c1ccc(-c2nnc(SCc3nc4ccccc4[nH]3)o2)cc1,"3160 nM [falling, full curve, poor fit]"
4,CCCCCn1c(=O)c(C(=O)Nc2c(C)n(C)n(-c3ccccc3)c2=O)c(O)c2ccccc21,"6310 nM [rising, single point]"
5,CC1(C)N(O)C(c2ccc(C(=O)O)cc2)=[N+]([O-])C1(C)C,"2 nM [falling, full curve, poor fit]"
6,COc1ccc(CCNC(=O)COC(=O)Cc2ccccc2)cc1,"10000 nM [rising, single point]"
7,O=C(CN1CCOCC1)c1ccc2cc[nH]c2c1,"7080 nM [falling, partial curve, poor fit]"
8,CCCc1[nH]nc2c1C1(C(=O)N(CC(N)=O)c3ccccc31)C(C(=O)OC)=C(N)O2 (stereo not given),"3.98 nM [rising, full curve, poor fit]"
9,CCN(CC)Cc1c[nH]c2ccccc12,"15800 nM [falling, single point]"
10,CC[C@@]1(O)C(=O)OCc2c1cc1n(c2=O)Cc2cc3ccccc3nc2-1,"316 nM [rising, full curve, poor fit]"
11,Cn1cc(CCC(=O)N2CCC3(CC2)OCCO3)c2ccccc21,"39800 nM [falling, partial curve, poor fit]"
12,CCOc1ccc(N2C(=O)c3ccccc3C2=O)cc1,"100 nM [falling, partial curve, poor fit]"
13,CC(=NCCCO)c1c(O)n(Cc2ccccc2)c(=O)[nH]c1=O,"1000 nM [falling, full curve]"
14,COc1ccc(P2(=O)Nc3ccccc3N2)cc1,"3980 nM [falling, single point]"
15,CC(=O)Nc1ccccc1OP1(=O)COc2ccccc2OC1,"1260 nM [falling, single point]"
16,Cc1cc(Cl)ccc1OCC(=O)O,"79.4 nM [rising, full curve, poor fit]"
17,CN(C)C(=O)Oc1ccc(C(=O)c2ccccc2)cc1,"3980 nM [falling, single point]"
18,C[N+]1(C)[C@@H]2CC[C@H]1CC(OC(=O)[C@@H](CO)c1ccccc1)C2 (stereo not given in full),"10 nM [falling, full curve, poor fit]"
19,CN(C)P1(N(C)C)=Nc2c(c(N)nn2C)C(c2ccccc2)=N1,"631 nM [falling, single point]"
20,COc1ccc2c(c1)c(C(=O)CN1CCC3(CC1)OCCO3)c(C)n2Cc1ccccc1,"20 nM [rising, full curve, poor fit]"
21,O=c1c2cc(Cl)cc(Cl)c2nc(CN2CCOCC2)n1-c1ccccc1F,"15800 nM [rising, single point]"
22,Cc1ccc(N2C(=O)/C(=C/c3ccc(CN(CCC#N)S(C)(=O)=O)o3)C(=O)NC2=S)cc1C,"3160 nM [falling, partial curve, poor fit]"

# Three successive compounds from above:
row,SMILES,AC50
5,CC1(C)N(O)C(c2ccc(C(=O)O)cc2)=[N+]([O-])C1(C)C,"2 nM [falling, full curve, poor fit]"
6,COc1ccc(CCNC(=O)COC(=O)Cc2ccccc2)cc1,"10000 nM [rising, single point]"
7,O=C(CN1CCOCC1)c1ccc2cc[nH]c2c1,"7080 nM [falling, partial curve, poor fit]"

# Next part.

row,SMILES,AC50
1,CCOC(=O)C1=C(C)N(C)C2(C)CC1c1ccccc1O2 (stereo not given),"794 nM [falling, single point]"
2,CCOC(=O)c1oc2ccccc2c1NC(=O)CN1CCN(C)CC1,"12600 nM [falling, single point]"
3,CN1CCc2nc3ccc(F)cc3c(C(N)=O)c2C1,"100 nM [falling, partial curve]"
4,CCN1C[C@]2(C)CC[C@@H](O)[C@]34[C@@H]5CC6[C@@H](OC)C[C@@](O)([C@H]5[C@@H]6O)[C@@H](C[C@@H]23)[C@H]14,"31600 nM [rising, single point]"
5,COc1cc2c(cc1OC)-c1c(O)c(OC)cc3c1[C@H](C2)N(C)CC3,"20000 nM [falling, partial curve]"
6,O=C(C1CCN(CC2CCCCC2)CC1)N1CCCC1,"158 nM [rising, full curve, poor fit]"
7,CNCCc1ccc(O)c(O)c1,"25.1 nM [falling, full curve, poor fit]"
8,COC(=O)C(C#N)C(c1cccnc1)c1c(C)[nH][nH]c1=O (stereo not given),"6310 nM [rising, single point]"
9,CCOc1ccccc1CN(CCc1ccc2c(c1)OCO2)Cc1ccc(CC)cc1,"50.1 nM [falling, full curve, poor fit]"
10,COc1ccc(NC(=O)c2ccc(COCC(F)(F)C(F)F)cc2)cc1,"3980 nM [falling, full curve]"
11,CC(C)c1c(CN(C)[C@@H](C)Cc2ccccc2)n(C)n(-c2ccccc2)c1=O,"200 nM [falling, full curve, poor fit]"
12,CCN(CC)C(=O)CN1CCN(c2ccccc2F)CC1,"63.1 nM [rising, full curve, poor fit]"
13,CN(C)P(=O)(C(Cl)=C(N1CCCCC1)N1CCCCC1)N(C)C,"6310 nM [rising, single point]"
14,COc1cc(C(=O)NC2CC3CCCC(C2)N3CC(=O)Nc2ccccc2)cc(OC)c1OC (stereo not given),"2820 nM [falling, single point]"
15,CC(C)NC[C@H](O)c1ccc(N)c(C#N)c1,"31600 nM [falling, single point]"
16,O=C(Nc1ccc2oc(-c3cccnc3)nc2c1)c1ccc(-c2cccc(Cl)c2)o1,"31600 nM [rising, single point]"
17,CN(C)C1C(=O)C(C(N)=O)=C(O)[C@@]2(O)C(=O)C3=C(O)c4c(O)cccc4[C@@](C)(O)C3C[C@@H]12 (stereo not given in full),"20000 nM [rising, partial curve, poor fit]"
18,CC1(C)CC(=O)C2=C(C1)NC(=O)C21C(C(=O)OC(C)(C)C)=C(N)Oc2ccc(Br)cc21 (stereo not given),"1580 nM [falling, partial curve]"
19,CN1Cc2c(ccc3c2OCO3)[C@@H]2[C@@H](O)Cc3cc4c(cc3[C@@H]21)OCO4,"15800 nM [falling, single point]"
20,O=c1[nH]c(=O)n(CCC2=CCCCC2)c(O)c1C=NCCCn1ccnc1,"79.4 nM [rising, full curve, poor fit]"
21,CCOc1ccc(OCC)c(NC(=O)CN2CCN(c3ccc(C)cc3C)CC2)c1,"50.1 nM [falling, full curve]"
